Results are given in words; binding and its absence hold for the method and conditions named. Binding seen in cells or lysates may run through a third protein. Some binding calls cover weakened binding; strength is not graded here.
Legend:
[1] = biological target: biotin-tagged nNOS (human) (UniProt P29475); test: pull-down; streptavidin-sepharose pull-down of biotin-tagged nNOS from detergent extracts of HEK293T cells transfected with Bio-nNOS, Flag-GluA1 and myc-SAP97 (also without GluA1), two days after transfection; western blot
[2] = biological target: SAP97, endogenous in rat cortex (rat (endogenous in P7 cortex)) (UniProt Q62696); test: co-IP; detergent extracts (low-salt buffer, 0.5% igepal) of postnatal day 7 rat cerebral cortex; IP with SAP97N antiserum or monoclonal nNOS antibody A-11, protein-A magnetic beads, 4°C; western blot
[3] = biological target: neuronal nitric oxide synthase (nNOS), endogenous in rat cortex (rat (endogenous in P7 cortex)) (UniProt P29476); test: as above

By UniProt entry, the sequences of proteins in these tests, tags left out. Residues count along the entry.
UniProt P29475: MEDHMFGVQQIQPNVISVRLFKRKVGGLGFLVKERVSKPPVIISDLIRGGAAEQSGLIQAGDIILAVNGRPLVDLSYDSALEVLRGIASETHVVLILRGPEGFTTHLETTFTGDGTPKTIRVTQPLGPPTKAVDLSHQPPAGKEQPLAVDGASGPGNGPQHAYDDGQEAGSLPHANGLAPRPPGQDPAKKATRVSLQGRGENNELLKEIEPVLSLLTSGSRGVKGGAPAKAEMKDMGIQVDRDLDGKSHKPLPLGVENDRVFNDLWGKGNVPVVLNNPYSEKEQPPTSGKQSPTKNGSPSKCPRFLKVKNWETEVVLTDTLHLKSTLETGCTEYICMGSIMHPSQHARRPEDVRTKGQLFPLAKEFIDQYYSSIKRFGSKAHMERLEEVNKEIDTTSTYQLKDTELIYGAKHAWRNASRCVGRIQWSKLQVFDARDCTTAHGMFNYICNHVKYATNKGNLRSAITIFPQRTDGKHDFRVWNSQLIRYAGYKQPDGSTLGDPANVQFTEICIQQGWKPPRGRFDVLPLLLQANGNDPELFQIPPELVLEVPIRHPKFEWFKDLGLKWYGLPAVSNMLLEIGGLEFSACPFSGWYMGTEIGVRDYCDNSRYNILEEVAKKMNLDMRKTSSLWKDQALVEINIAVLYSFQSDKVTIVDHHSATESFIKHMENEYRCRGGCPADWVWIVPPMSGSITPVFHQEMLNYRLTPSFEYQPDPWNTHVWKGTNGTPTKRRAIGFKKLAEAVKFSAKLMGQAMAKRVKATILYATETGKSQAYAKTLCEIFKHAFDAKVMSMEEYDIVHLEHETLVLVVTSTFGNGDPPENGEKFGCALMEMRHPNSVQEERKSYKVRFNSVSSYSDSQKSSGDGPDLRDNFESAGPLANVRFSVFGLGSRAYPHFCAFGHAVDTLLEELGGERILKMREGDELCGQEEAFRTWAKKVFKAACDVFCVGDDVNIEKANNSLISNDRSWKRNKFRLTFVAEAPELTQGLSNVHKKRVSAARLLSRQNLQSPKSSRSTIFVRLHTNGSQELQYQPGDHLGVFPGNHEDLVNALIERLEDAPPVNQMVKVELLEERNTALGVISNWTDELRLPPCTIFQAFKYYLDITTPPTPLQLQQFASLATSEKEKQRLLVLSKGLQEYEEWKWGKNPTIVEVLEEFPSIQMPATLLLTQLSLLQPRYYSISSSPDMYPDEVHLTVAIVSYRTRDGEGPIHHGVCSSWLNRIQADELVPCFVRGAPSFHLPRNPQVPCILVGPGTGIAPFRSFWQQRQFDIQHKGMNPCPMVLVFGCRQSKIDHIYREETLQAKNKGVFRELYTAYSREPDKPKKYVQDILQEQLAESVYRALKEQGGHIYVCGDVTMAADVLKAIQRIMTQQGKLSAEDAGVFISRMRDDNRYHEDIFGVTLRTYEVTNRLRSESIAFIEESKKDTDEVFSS
UniProt Q62696: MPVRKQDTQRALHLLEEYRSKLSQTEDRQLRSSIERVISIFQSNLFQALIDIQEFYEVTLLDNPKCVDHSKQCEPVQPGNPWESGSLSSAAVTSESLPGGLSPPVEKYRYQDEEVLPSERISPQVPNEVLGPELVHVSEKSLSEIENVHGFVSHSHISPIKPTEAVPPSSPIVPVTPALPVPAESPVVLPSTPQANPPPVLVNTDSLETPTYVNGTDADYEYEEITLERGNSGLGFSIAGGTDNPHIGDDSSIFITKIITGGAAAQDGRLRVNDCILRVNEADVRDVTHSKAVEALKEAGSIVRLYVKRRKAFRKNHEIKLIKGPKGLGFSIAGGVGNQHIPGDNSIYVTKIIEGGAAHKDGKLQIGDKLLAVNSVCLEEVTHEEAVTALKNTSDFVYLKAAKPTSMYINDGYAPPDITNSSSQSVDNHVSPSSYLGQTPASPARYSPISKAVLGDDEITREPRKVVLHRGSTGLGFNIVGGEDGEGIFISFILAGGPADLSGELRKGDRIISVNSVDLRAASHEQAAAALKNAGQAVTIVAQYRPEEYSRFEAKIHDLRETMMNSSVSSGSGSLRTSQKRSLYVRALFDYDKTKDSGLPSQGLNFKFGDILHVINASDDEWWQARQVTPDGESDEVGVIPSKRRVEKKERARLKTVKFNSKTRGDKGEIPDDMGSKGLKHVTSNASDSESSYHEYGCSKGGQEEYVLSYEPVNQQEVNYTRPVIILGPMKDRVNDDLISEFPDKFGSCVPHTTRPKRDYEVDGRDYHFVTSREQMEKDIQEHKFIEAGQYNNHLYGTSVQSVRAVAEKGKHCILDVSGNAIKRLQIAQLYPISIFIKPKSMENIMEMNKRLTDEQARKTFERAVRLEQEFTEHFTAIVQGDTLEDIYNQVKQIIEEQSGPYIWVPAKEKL
UniProt P29476: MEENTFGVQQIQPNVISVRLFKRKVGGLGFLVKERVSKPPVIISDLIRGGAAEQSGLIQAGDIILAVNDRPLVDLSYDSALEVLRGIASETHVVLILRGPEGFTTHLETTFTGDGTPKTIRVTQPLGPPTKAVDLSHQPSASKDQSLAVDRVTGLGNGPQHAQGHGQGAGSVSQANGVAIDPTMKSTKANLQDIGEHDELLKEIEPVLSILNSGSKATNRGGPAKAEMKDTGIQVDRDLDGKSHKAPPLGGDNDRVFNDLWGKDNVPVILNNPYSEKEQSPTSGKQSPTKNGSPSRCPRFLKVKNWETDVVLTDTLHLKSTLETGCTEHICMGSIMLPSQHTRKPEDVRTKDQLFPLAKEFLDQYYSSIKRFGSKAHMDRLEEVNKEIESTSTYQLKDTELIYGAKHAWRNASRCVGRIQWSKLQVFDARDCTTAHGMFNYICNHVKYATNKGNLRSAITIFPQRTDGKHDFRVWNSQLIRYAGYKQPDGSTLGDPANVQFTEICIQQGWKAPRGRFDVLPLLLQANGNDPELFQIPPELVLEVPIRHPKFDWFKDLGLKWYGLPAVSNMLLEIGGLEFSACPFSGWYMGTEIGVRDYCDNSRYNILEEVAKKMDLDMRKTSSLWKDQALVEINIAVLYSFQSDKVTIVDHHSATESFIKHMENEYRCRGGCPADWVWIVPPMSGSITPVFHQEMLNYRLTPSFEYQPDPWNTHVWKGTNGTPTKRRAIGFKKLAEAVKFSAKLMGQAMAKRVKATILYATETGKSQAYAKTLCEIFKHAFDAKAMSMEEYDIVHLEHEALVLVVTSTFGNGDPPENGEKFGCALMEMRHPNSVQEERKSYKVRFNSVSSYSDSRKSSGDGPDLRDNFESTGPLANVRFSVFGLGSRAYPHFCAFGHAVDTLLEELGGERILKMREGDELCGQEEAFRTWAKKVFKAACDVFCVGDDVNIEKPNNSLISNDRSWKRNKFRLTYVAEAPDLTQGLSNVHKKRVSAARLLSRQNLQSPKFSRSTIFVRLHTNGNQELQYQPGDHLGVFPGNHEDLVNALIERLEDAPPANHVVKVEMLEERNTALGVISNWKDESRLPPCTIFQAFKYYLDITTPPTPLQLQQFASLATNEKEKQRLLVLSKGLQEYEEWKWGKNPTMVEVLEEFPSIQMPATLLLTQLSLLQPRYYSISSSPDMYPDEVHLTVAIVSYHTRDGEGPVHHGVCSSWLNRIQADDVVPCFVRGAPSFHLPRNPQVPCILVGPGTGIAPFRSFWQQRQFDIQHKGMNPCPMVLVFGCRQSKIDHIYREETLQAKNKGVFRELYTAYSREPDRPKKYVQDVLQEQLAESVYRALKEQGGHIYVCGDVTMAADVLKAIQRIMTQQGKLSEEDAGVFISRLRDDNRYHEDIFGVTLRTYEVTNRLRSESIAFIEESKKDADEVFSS
UniProt P19490, residues 19-907: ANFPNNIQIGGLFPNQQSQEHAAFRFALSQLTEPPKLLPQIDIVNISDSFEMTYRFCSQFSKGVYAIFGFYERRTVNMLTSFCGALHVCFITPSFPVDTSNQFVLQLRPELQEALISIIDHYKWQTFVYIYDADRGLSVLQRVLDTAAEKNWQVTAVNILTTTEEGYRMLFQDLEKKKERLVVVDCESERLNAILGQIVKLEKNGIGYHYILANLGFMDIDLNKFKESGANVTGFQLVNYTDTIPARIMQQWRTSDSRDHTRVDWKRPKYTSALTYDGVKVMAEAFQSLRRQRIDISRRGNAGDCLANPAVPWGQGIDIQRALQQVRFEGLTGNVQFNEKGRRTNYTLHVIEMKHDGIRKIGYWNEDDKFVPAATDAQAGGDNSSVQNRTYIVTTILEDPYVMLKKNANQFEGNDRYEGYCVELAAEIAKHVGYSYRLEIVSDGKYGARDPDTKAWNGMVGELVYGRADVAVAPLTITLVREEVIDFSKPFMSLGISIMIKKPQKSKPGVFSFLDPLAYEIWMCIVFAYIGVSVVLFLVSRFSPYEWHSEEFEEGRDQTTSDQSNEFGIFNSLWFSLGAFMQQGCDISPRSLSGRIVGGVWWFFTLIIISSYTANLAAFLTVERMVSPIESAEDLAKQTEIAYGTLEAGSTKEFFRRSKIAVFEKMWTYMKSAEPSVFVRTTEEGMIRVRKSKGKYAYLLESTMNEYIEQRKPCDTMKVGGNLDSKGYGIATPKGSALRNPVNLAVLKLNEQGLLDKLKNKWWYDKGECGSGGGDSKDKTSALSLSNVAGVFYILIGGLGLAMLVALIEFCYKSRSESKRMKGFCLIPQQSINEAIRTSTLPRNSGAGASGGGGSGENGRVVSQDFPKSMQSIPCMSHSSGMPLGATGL

| binding [2] | Substance | other results |
| --- | --- | --- |
| – | N-terminally myc-tagged SAP97 (from UniProt Q62696 1-911) | binding [1]: binds |
| binds | neuronal nitric oxide synthase (nNOS), endogenous in rat cortex (from UniProt P29476 1-1429) (enzyme) | – |
| – | SAP97, endogenous in rat cortex (from UniProt Q62696 1-911) | binding [3]: binds |
| binds | GluA1, endogenous in rat cortex (from UniProt P19490 19-907) (receptor) | – |
